In PubChem BioAssay AID2685 (National Center for Advancing Translational Sciences (NCATS), 2010):
The other results are listed elsewhere or left out. The main result of the screen is listed elsewhere. These columns were measured beside it and carry no call. The list favours compounds with an active or inconclusive main result. The note in brackets gives the kind of curve behind each potency; many fits are weak.

Assay: qHTS Assay for Lipid Storage Modulators in Drosophila S3 Cells;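 on cell number change: cells counted by Cell Tracker Red CMTPX staining in the red channel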
Settings: BODIPY lipid droplet fluorescence, 18-24 h; for cell number change: measured here: cell count max response, cells fed with added oleic acid
Procedure, shortened: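 Drosophila S3 cells loaded with oleic acid (400 uM, as added) and compounds at several concentrations; lipid droplets imaged by 488-nm laser-scanning cytometry, 500–530 nm intensity and object ratio to cell channel. Percent activity normalized to 20 uM Triacsin C.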

[1] = measured here: lipid fluorescence (Fed channel) AC50, cells fed with added oleic acid
[2] = measured here: cell number channel AC50, cells fed with added oleic acid

Compound	cell number change	AC50 [1]	AC50 [2]
CCOc1ncccc1C(=O)OCC(=O)N1c2ccccc2CC1C (stereo unspecified)	-1.1%	5.17 µM [rising, partial curve]	–
O=C(CN1C(=O)c2cccc3cccc1c23)N1CCN(c2cccc(Cl)c2)CC1	-14.4%	–	–
O=S(=O)(c1ccc(F)cc1)N1CN(Cc2ccco2)c2nc3ccccc3nc21	108%	1.84 µM [falling, partial curve]	20.6 µM [rising, single point]
CCCNc1c(NC(C)=O)c(=O)oc2ccccc12	37.4%	4.61 µM [rising, full curve]	4.61 µM [rising, single point]
Cc1c(O)nc(SCC(=O)Nc2cccc(C(F)(F)F)c2)n(-c2ccccc2)c1=O	2.31%	0.184 µM [falling, full curve, poor fit]	–
Cc1ccc(-c2nn(-c3ccccc3)cc2/C=C/C(=O)Nc2nccs2)cc1	-28.1%	23.1 µM [falling, single point]	–
COC(=O)c1cc(OC)c(OC)cc1NC(=O)Cc1cccs1	-7.59%	18.4 µM [falling, partial curve, poor fit]	–
OCC[C@H]1C[C@H](O)[C@@H](O)[C@@]2(OCCCc3ccccc32)O1	-36.8%	9.2 µM [falling, partial curve, poor fit]	9.2 µM [falling, partial curve, poor fit]
Cc1cc(-c2n[nH]c(=S)n2/N=C/c2cc([N+](=O)[O-])ccc2Cl)n[nH]1	-23.4%	29.1 µM [falling, single point]	–
CCc1nc2c(c(=O)c3ccccc3n2C)c(=O)n1-c1ccc(F)cc1	9.44%	–	–
COc1ccc(S(=O)(=O)NCc2ccc(C(=O)NCc3cccnc3)cc2)cc1	–	18.4 µM [rising, single point]	6.51 µM [rising, single point]
COc1ccc(CCCC(=O)N/N=C/c2ccc(C)cc2)cc1	–	0.0291 µM [rising, full curve, poor fit]	–
O=S(=O)(NCC(c1cccnc1)N1CCN(c2ccccc2F)CC1)c1cccs1 (stereo unspecified)	10.5%	–	–
Cc1ccn2nc(C(=O)OCC(=O)N(CC(C)C)C3CCS(=O)(=O)C3)nc2n1 (stereo unspecified)	-20.2%	0.461 µM [falling, full curve, poor fit]	–
CCOC(=O)C1CCCN(c2c(NCCN3CCCCC3C)c(=O)c2=O)C1 (stereo unspecified)	-1.22%	0.0651 µM [falling, full curve, poor fit]	–
COc1cc2cc(C(c3nnnn3C3CCCC3)N3CCCCCC3)c(=O)[nH]c2cc1OC (stereo unspecified)	–	1.46 µM [rising, partial curve]	–
Cc1cc(=O)oc2cc(NC(=O)CCC(=O)O)ccc12	0.287%	0.326 µM [falling, single point]	–
CC1CCN(c2nc(-c3ccncc3)nc3ccccc23)CC1	-52.7%	29.1 µM [falling, single point]	20.6 µM [falling, single point]
Cc1cc(C)cc(NC(=O)CN2CCCN(S(=O)(=O)c3ccc(Br)s3)CC2)c1	64.9%	6.51 µM [rising, single point]	7.31 µM [rising, partial curve]
N#Cc1cc(S(=O)(=O)N2CCOCC2)ccc1N1CCOCC1	2.05%	–	–

Compound	cell number change	AC50 [1]	AC50 [2]
Cc1ccc(CO/N=C/C2=C(Cl)c3ccccc3CC2)cc1	17.3%	20.6 µM [rising, partial curve]	0.058 µM [falling, full curve, poor fit]
CCNC(=S)Nc1cc(C(=O)N2CCCC2)ccc1N1CCCC1	-26.1%	18.4 µM [falling, single point]	4.61 µM [falling, full curve, poor fit]
Cc1ccccc1Nc1c(N)c(=O)oc2ccccc12	–	0.116 µM [falling, full curve, poor fit]	0.116 µM [falling, full curve, poor fit]
COCc1c(Br)c(C)nc(OCC(=O)O)c1C#N	-232%	0.651 µM [falling, single point]	0.13 µM [falling, full curve, poor fit]
COc1ccc(C(c2c(NC(=O)c3ccccc3)sc(C)c2C)N2CCN(CCO)CC2)cc1 (stereo unspecified)	62%	–	9.2 µM [rising, partial curve]
CCN(Cc1ccccc1)S(=O)(=O)c1cc(C(=O)c2c(N)n(C)c(=O)n(C)c2=O)ccc1OC	-28.7%	0.517 µM [falling, full curve, poor fit]	–
CCCN1C(=O)/C(=C\C=C2/Sc3ccccc3N2CC)SC1=S	-13.2%	0.00461 µM [falling, full curve, poor fit]	–
O=C1c2ccccc2C(Nc2ccc(F)cc2F)N1CCN1CCOCC1 (stereo unspecified)	13.1%	0.092 µM [rising, full curve, poor fit]	–
CCCCN1C(=O)c2ccc(C(=O)Nc3ccc(C)c(S(=O)(=O)N(C)C)c3)cc2C1=O	-10.2%	29.1 µM [falling, single point]	–
Cc1ccc(S(=O)(=O)CC(=O)Nc2cccc(C)n2)cc1	17.1%	–	–
CCCn1nnc(NC(=O)c2cccc(OCC(C)C)c2)n1	-15.8%	25.9 µM [rising, single point]	–
CCOC(=O)N1CCN(C(=O)CS(=O)(=O)Cc2nc(-c3cccc(OC)c3)oc2C)CC1	1.53%	–	–
CCN(CC(=O)Nc1ccc(NC(C)=O)cc1)C(=O)c1oc2c(ccc3ccccc32)c1C	-16.8%	2.59 µM [rising, full curve]	–
Cc1cccc(CNC(=O)CCc2nnc(C3CCCCC3)o2)c1	6.37%	–	–
CCSc1nc2nc(C)cc(C)n2n1	-1.12%	–	6.51 µM [rising, single point]
c1ccc(CCn2cnc3ccccc32)cc1	4.75%	–	0.00461 µM [falling, full curve, poor fit]
Cc1c(OCC(=O)NCC(O)c2ccccc2)ccc2c(-c3ccccc3)cc(=O)oc12 (stereo unspecified)	–	13 µM [falling, partial curve]	–
CN(Cc1ccccc1)C(=O)c1ccc(NC(=O)C2=CSCCO2)cc1	-28.7%	29.1 µM [falling, single point]	–
Cc1ccc(/C=C(\C#N)c2nc3ccccc3[nH]2)s1	-27.6%	1.03 µM [falling, full curve, poor fit]	–
COc1ccc(Cl)cc1S(=O)(=O)N1CCC(C(=O)NCc2ccco2)CC1	-15.7%	0.231 µM [falling, full curve]	–

Given with bars between the fields: entries from further up
Compound | cell number change | AC50 [1] | AC50 [2]
CCCCN1C(=O)c2ccc(C(=O)Nc3ccc(C)c(S(=O)(=O)N(C)C)c3)cc2C1=O | -10.2% | 29.1 µM [falling, single point] | –
CCCn1nnc(NC(=O)c2cccc(OCC(C)C)c2)n1 | -15.8% | 25.9 µM [rising, single point] | –
CCOC(=O)N1CCN(C(=O)CS(=O)(=O)Cc2nc(-c3cccc(OC)c3)oc2C)CC1 | 1.53% | – | –

The list goes on.

Compound	cell number change	AC50 [1]	AC50 [2]
O=C(CCc1nnc2n(Cc3ccc(F)cc3)c(=O)c3ccccc3n12)N1CCN(c2ccccn2)CC1	–	11.6 µM [falling, partial curve]	–
Cc1ccc(SCCC(=O)NCc2ccncc2)cc1	22%	11.6 µM [rising, partial curve]	–
CCCCn1nc(C(=O)N(CC)CC(=O)Nc2c(F)cccc2F)c2ccccc2c1=O	-6.56%	0.0651 µM [falling, full curve, poor fit]	–
COc1ccccc1NC(=S)NCCN1CCOCC1	-4.26%	20.6 µM [falling, single point]	–
CCOc1ccc(CNC(=O)Cn2ccc3cc(S(=O)(=O)N4CCCC4)ccc32)cc1	11%	–	–
Cc1cc(N2CCN(c3ccccc3F)CC2)nc2cc(O)ccc12	3.56%	0.366 µM [rising, full curve, poor fit]	–
COc1ccc(C(=O)NCc2cc(C)nc3ccccc23)cc1OC	15.6%	20.6 µM [rising, single point]	–
Nc1nc(C23CC4CCC(CC(C4)C2)C3)cs1	-19.7%	32.6 µM [falling, partial curve, poor fit]	–
O=C(CSc1nc2cc3ccccc3cc2[nH]1)Nc1ccc(F)cc1	-52.8%	32.6 µM [falling, single point]	29.1 µM [falling, single point]
CCN(CC(=O)Nc1ccc(S(=O)(=O)N2CCOCC2)cc1)Cc1ccccc1	1.91%	3.26 µM [falling, single point]	–
COc1ccc(-c2nc(CS(=O)(=O)CC(=O)NCCCN3CCN(C)CC3)c(C)o2)cc1	-11.1%	–	–
Cc1ccc(S(=O)(=O)CCNC(=O)Cc2ccccc2)cc1	-38.4%	–	29.1 µM [falling, single point]
CCN(CC(=O)NCc1ccc(F)cc1)C(=O)CN1CCN(c2ccccc2OC)CC1	5.98%	–	–
CCn1c(CSc2nc3ccccc3s2)n[nH]c1=S	35.5%	–	1.64 µM [rising, full curve, poor fit]
CSc1nc(NC(C)C)nc(N2CCOCC2)n1	-10.9%	8.2 µM [falling, partial curve]	–
COC(=O)C1Cc2ccccc2CN1C(=O)CCl (stereo unspecified)	-36.4%	–	29.1 µM [falling, single point]
CCOC(=O)N1CCC(N2C(=O)c3ccccc3C2Nc2ccccc2C)CC1 (stereo unspecified)	42.9%	0.366 µM [rising, full curve]	0.13 µM [rising, full curve]
O=C(Cc1ccc(Cl)cc1)Nc1ccccc1N1CCN(C(=O)c2ccccc2)CC1	-16%	–	–
Cc1ccc(N2CCN(C(=O)c3ccccc3)CC2)c(C)c1	134%	6.51 µM [falling, single point]	–
CC1C(c2ccccc2)N(C)C(c2ccccc2)C(C)C1(O)C#Cc1ccccc1 (stereo unspecified)	-53.6%	20.6 µM [falling, partial curve]	11.6 µM [falling, partial curve]

Given as labelled records: two of the compounds above.
CCCn1nnc(NC(=O)c2cccc(OCC(C)C)c2)n1
  cell number change: -15.8%; AC50 [1]: 25.9 µM [rising, single point]
CCOC(=O)N1CCN(C(=O)CS(=O)(=O)Cc2nc(-c3cccc(OC)c3)oc2C)CC1
  cell number change: 1.53%
